Laboratory results published in the supplement of paper PMC6078165.
± gives the standard deviation of the averaged measurements. The reference is the same well before dosing, and untreated signal decays as well.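 Labels refer to human fibroblasts, largely primary: uterine (C12385, HUF), lung (H6013), bone (Hs27A), adrenal (HADF), skin (WS1), plus mammary HMF and breast cancer-associated Hs343T. Cancer lines are basal-like or mesenchymal-like triple-negative breast cancer. The paper counts as hits responses shifting over 3x the replicate standard deviation. The tissue of the other fibroblasts is not given here.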

Tested on: MDAMB436
Experiment: relative JC-1 red fluorescence (viability) vs pre-drug, coculture with fibroblast (fraction); higher = more viable cancer cells
Conditions: 100 µM
Experimental: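 JC-1 labelled TNBC cells cocultured 1:1 (1,500 cells each) with CellTrace Violet stained primary or stromal fibroblasts in 384-well plates in FluoroBrite medium, treated with one of 42 anticancer drugs at 0.1, 1, 10 or 100 uM. JC-1 red fluorescence (mitochondrial integrity in cancer cells only) was read by plate reader every 8 h for 72 h. Values are normalised to each well's pre-drug value. The stock of one drug was tenfold lower, so its dose labels may be too high.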

C=C1C[C@@H]2[C@H](CC[C@]3(C)C(=O)CC[C@@H]23)[C@@]2(C)C=CC(=O)C=C12 [Exemestane]
relative JC-1 red fluorescence
Conditions | 8 h | 16 h | 24 h | 32 h | 40 h | 48 h | 56 h | 64 h | 72 h
coculture fibroblast: C12385 | 0.8356 ± 0.0012 | 0.797 ± 0.048 | 0.807 ± 0.026 | 0.756 ± 0.019 | 0.732 ± 0.013 | 0.709 ± 0.018 | 0.68414 ± 0.00019 | 0.6612 ± 0.0036 | 0.649 ± 0.014
coculture fibroblast: H6013 | 0.881 ± 0.015 | 0.80636 ± 0.00068 | 0.794 ± 0.015 | 0.779 ± 0.018 | 0.764 ± 0.038 | 0.776 ± 0.047 | 0.735 ± 0.055 | 0.718 ± 0.057 | 0.676 ± 0.062
coculture fibroblast: H6019 | 0.7946 ± 0.0051 | 0.77 ± 0.011 | 0.782 ± 0.022 | 0.74 ± 0.029 | 0.725 ± 0.049 | 0.713 ± 0.038 | 0.693 ± 0.043 | 0.682 ± 0.051 | 0.667 ± 0.066
coculture fibroblast: H6076 | 0.813 ± 0.036 | 0.711 ± 0.02 | 0.724 ± 0.02 | 0.7 ± 0.017 | 0.669 ± 0.011 | 0.6376 ± 0.0061 | 0.6397 ± 0.0016 | 0.6296 ± 0.0031 | 0.6213 ± 0.0018
coculture fibroblast: H6231 | 0.784 ± 0.015 | 0.703 ± 0.018 | 0.689 ± 0.027 | 0.636 ± 0.027 | 0.581 ± 0.032 | 0.544 ± 0.032 | 0.503 ± 0.019 | 0.488 ± 0.025 | 0.452 ± 0.029
coculture fibroblast: HADF | 0.899 ± 0.018 | 0.8635 ± 0.006 | 0.8583 ± 0.0044 | 0.854 ± 0.015 | 0.836 ± 0.011 | 0.8559 ± 0.0078 | 0.797 ± 0.014 | 0.781 ± 0.026 | 0.742 ± 0.039
coculture fibroblast: HCFa | 0.848 ± 0.0015 | 0.848 ± 0.014 | 0.842 ± 0.019 | 0.822 ± 0.017 | 0.805 ± 0.032 | 0.826 ± 0.038 | 0.763 ± 0.033 | 0.751 ± 0.044 | 0.698 ± 0.048
coculture fibroblast: HCPF | 0.845 ± 0.051 | 0.769 ± 0.066 | 0.819 ± 0.073 | 0.785 ± 0.098 | 0.739 ± 0.097 | 0.698 ± 0.11 | 0.643 ± 0.12 | 0.601 ± 0.13 | 0.557 ± 0.16
coculture fibroblast: HHSteC | 0.878 ± 0.023 | 0.848 ± 0.011 | 0.839 ± 0.011 | 0.815 ± 0.012 | 0.8092 ± 0.0046 | 0.823 ± 0.0094 | 0.7523 ± 0.0053 | 0.727 ± 0.016 | 0.67 ± 0.0098
coculture fibroblast: HMF | 0.922 ± 0.09 | 0.801 ± 0.093 | 0.793 ± 0.075 | 0.749 ± 0.078 | 0.692 ± 0.047 | 0.64 ± 0.046 | 0.587 ± 0.037 | 0.553 ± 0.035 | 0.502 ± 0.015
coculture fibroblast: HPFa | 0.904 ± 0.029 | 0.88193 ± 0.00087 | 0.8 ± 0.11 | 0.786 ± 0.077 | 0.8282 ± 0.0038 | 0.83281 ± 0.00042 | 0.754 ± 0.023 | 0.762 ± 0.1 | 0.704 ± 0.13
coculture fibroblast: HUF | 0.8795 ± 0.0081 | 0.801 ± 0.02 | 0.811 ± 0.013 | 0.737 ± 0.0078 | 0.708 ± 0.0081 | 0.68 ± 0.0089 | 0.65 ± 0.0082 | 0.639 ± 0.019 | 0.627 ± 0.014
coculture fibroblast: Hs5 | 0.825 ± 0.025 | 0.736 ± 0.045 | 0.742 ± 0.059 | 0.691 ± 0.064 | 0.663 ± 0.07 | 0.613 ± 0.075 | 0.606 ± 0.08 | 0.577 ± 0.077 | 0.562 ± 0.088
coculture fibroblast: Hs27A | 0.86982 ± 0.00027 | 0.8232 ± 0.0012 | 0.81827 ± 5.7e-06 | 0.792 ± 0.0088 | 0.753 ± 0.023 | 0.794 ± 0.034 | 0.701 ± 0.046 | 0.682 ± 0.04 | 0.616 ± 0.034
coculture fibroblast: Hs343T | 0.856 ± 0.059 | 0.751 ± 0.065 | 0.73 ± 0.048 | 0.688 ± 0.057 | 0.644 ± 0.052 | 0.6 ± 0.05 | 0.559 ± 0.034 | 0.534 ± 0.027 | 0.518 ± 0.0095
coculture fibroblast: WS1 | 0.807 ± 0.0086 | 0.745 ± 0.018 | 0.76032 ± 0.00043 | 0.7204 ± 0.0024 | 0.69 ± 0.012 | 0.67 ± 0.0082 | 0.657 ± 0.0088 | 0.63 ± 0.0065 | 0.619 ± 0.011
